The whole screen tested about 580,000 compounds, of which about 6,100 (1.1%) were called active. The inconclusive results got no clear call from the source; some entries with a clear call stand among them for comparison. The call rests on the fitted dose curve; in most records, active means well fitted inhibition curve with a large enough effect; inconclusive means small, poorly fitted or top-dose-only effect, or another doubt; inactive means no such curve, though single readings can be large or run the other way. Potencies of inconclusive entries are doubtful fits and often do not repeat.
molecular target: Polyunsaturated fatty acid lipoxygenase ALOX12 (Homo sapiens) (UniProt P18054); test: Primary qHTS assay for inhibitors of human arachidonate 12S-lipoxygenase (ALOX12): Round 2; settings: purified 12hLO, xylenol orange hydroperoxide absorbance; activity change, negative = inhibition: at 108 µM (top of the series) unless noted
Outline: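 Purified human 12hLO at 150 nM in 25 mM Hepes, 0.01% Triton X-100, pH 7.0, preincubated 15 min at room temperature with compound. Reaction started with 40 uM arachidonic acid, 30 min at room temperature. Hydroperoxide measured by Fe-xylenol orange, 573/405 nm absorbance ratio.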
On the % scale 0 is the no-effect control and ±100 the full control effect; potency means the concentration at half of the fitted maximal effect.

By UniProt entry, the sequences of proteins in these tests, tags left out. Where a name states a change or a piece, a line headed by the entry shows the natural chain unless it says otherwise.
UniProt P18054: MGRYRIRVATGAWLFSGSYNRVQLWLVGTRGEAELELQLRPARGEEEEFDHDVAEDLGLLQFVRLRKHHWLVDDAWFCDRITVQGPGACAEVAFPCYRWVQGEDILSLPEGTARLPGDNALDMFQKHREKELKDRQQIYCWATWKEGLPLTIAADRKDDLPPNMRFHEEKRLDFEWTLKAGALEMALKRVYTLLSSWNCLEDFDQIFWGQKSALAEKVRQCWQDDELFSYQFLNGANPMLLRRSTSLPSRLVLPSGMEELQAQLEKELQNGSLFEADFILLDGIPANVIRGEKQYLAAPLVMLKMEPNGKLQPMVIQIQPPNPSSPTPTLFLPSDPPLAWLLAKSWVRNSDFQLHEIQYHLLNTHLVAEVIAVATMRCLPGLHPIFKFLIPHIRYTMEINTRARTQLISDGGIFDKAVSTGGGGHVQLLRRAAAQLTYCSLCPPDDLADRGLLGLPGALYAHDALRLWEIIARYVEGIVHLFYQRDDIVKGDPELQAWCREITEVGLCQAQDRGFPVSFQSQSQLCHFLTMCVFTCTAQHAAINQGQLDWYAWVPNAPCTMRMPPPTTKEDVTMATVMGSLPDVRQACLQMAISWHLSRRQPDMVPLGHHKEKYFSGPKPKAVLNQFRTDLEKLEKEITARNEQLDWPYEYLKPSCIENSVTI

Row | Structure (SMILES) | Potency | activity change, negative = inhibition
1 | Cn1c(C(=O)NCC2CCN(CC(F)(F)F)C2)cc2ccccc21 (centres undefined) | inconclusive: 79.4 µM [inhibitor, partial curve, poor fit] | 
2 | O=C(Nc1ccc(Oc2cccnc2)cc1)c1ccc([N+](=O)[O-])cc1 |  | inactive: 3.38%
3 | CC1=CC(c2ccc(Cl)cc2)n2nc(NS(=O)(=O)c3ccc(C)cc3)nc2N1 (centres undefined) | inconclusive: 22.4 µM [inhibitor, full curve, poor fit] | 
4 | COc1nnc(-c2ccc(N3CCCCC3)c(NC(C)=O)c2)c2ccccc12 |  | inactive: -9.39%
5 | CCOC(=O)CCc1c(C)nc2cc(C3CCCN(C(=O)OC(C)(C)C)C3)[nH]n2c1=O (centres undefined) | inconclusive: 44.7 µM [inhibitor, partial curve, poor fit] | 
6 | CC(C1SC(=S)NC1=O)C1SC(=S)NC1=O (centres undefined) | active: 12.6 µM | 
7 | Cc1ccccc1C1C2=C(CCCC2=O)Nc2nc(SCc3ccc(C(=O)O)cc3)nn21 (centres undefined) | inconclusive: 158 µM [inhibitor, partial curve, poor fit] | 
8 | Oc1ccc(Cl)cc1CNc1ccc(Br)cn1 | inconclusive: 39.8 µM [inhibitor, partial curve, poor fit] | 
9 | CCC(=O)c1ccc(OCC(=O)NCCC2=CCCCC2)c(OC)c1 |  | inactive: -10.7%
10 | Cc1cc(F)ccc1NCc1ccccc1[N+](=O)[O-] |  | inactive: -20.2%
11 | COc1ccc(C(C(C(=O)c2ccco2)N2CCOCC2)N2CCOCC2)cc1 (centres undefined) | inconclusive: 44.7 µM [inhibitor, partial curve, poor fit] | 
12 | COC(=O)c1ccc2nc(C[C@@H]3C[C@@H](C(C)C)[C@H](CNCc4ccccc4O)C=C3C)[nH]c2c1 | inconclusive: 56.2 µM [inhibitor, partial curve, poor fit] | 
13 | Cc1ccc(CN(C)C(=O)NC(c2ccc3c(c2)OCCCO3)C(C)C)c(C)c1 (centres undefined) |  | inactive: 15.6%
14 | COc1ccc(C(=O)N2CC3(C2)NC(=O)c2ccccc2O3)cc1 |  | inactive: 14.8% [at 176 µM]
15 | O=C(Cn1cc(S(=O)(=O)N2CCCC2)c(S(=O)(=O)N2CCCC2)c1)Nc1cccc(F)c1 | inconclusive: 89.1 µM [inhibitor, single point] | 
16 | CN1CCN(C(=O)c2cc3c(c(-c4cccc(-c5cccnc5)c4)n2)[C@@H](CCO)N(C(=O)CC2CC2)C3)CC1 | inconclusive: 7.08 µM [inhibitor, full curve] | 
17 | O=C(O)c1cc2n(n1)C(C(F)(F)F)CC(c1ccccc1)N2 (centres undefined) | inconclusive: 8.91 µM [inhibitor, partial curve, poor fit] | 
18 | O=C(OCCOc1cccc(Cl)c1)c1cc(=O)c2ccccc2o1 |  | inactive: 4.3%
19 | CSCCC1NC(=O)N(CC(=O)Nc2c(Cl)cc(Cl)cc2Cl)C1=O (centres undefined) | inconclusive: 79.4 µM [inhibitor, partial curve, poor fit] | 
20 | Cc1nn(C)c(=S)[nH]c1=S | inconclusive: 44.7 µM [inhibitor, partial curve, poor fit] | 
21 | Cn1cnc([N+](=O)[O-])c1NCc1ccccc1 | inconclusive: 79.4 µM [inhibitor, partial curve, poor fit] | 
22 | CCOc1ccc(Nc2ncnc3c2cnn3Cc2ccccc2)cc1 | inconclusive: 11.2 µM [inhibitor, full curve] | 

Row | Structure (SMILES) | Potency | activity change, negative = inhibition
23 | CCc1ccc(NC(=O)C(C)n2nnc3sc(-c4ccccc4)cc3c2=O)cc1 (centres undefined) | inconclusive: 56.2 µM [inhibitor, partial curve, poor fit] | 
24 | COc1ccc(CN2CCNC(=O)C2CC(=O)N(C)CC2CCOCC2)cc1C (centres undefined) | inconclusive: 44.7 µM [inhibitor, partial curve, poor fit] | 
25 | COc1cccc(NC(=O)CCN2C(=O)c3cccc([N+](=O)[O-])c3C2=O)c1 | inconclusive: 4.47 µM [inhibitor, full curve, poor fit] | 
26 | Fc1ccc(N=Cc2ccc3ncccc3c2)c(Cl)c1 |  | inactive: 9.83%
27 | CC(C)c1ccc(-c2nc3cc(NC(=O)c4cccnc4)ccc3o2)cc1 | active: 39.8 µM | 
28 | c1ccc(CCCN2CCN(c3ccccn3)CC2)cc1 | active: 4.47 µM | 
29 | FC(F)Oc1ccc(C2N=C(c3ccccc3)NO2)cc1 (centres undefined) | inconclusive: 44.7 µM [inhibitor, partial curve, poor fit] | 
30 | CCOc1cccc(N2C(=O)CC(NCc3ccc(S(N)(=O)=O)cc3)C2=O)c1 (centres undefined) | inconclusive: 28.2 µM [inhibitor, partial curve, poor fit] | 
31 | COC(=O)c1c(OCc2ccccc2)cc(=O)n2c1CCN(Cc1cccc(C)n1)CC2 | inconclusive: 79.4 µM [inhibitor, single point] | 
32 | NS(=O)(=O)c1ccc(CNS(=O)(=O)c2cccc3nonc23)cc1 | inconclusive: 141 µM [inhibitor, single point] | 
33 | Cc1ccc(-c2cn3nc(C)c(C)nc3n2)cc1 | inconclusive: 63.1 µM [inhibitor, partial curve, poor fit] | 
34 | COc1ccc(C(=O)NC(NC(C)C)C(Cl)(Cl)Cl)cc1 (centres undefined) |  | inactive: 18%
35 | Cc1ccc(CN(C(=O)COc2ccc(Cl)c(C)c2)C2CCS(=O)(=O)C2)o1 (centres undefined) |  | inactive: 0%
36 | Cc1nc2nc(SCC(=O)O)nn2c(C)c1Cc1c(F)cccc1Cl | inconclusive: 89.1 µM [inhibitor, partial curve, poor fit] | 
37 | O=C(Cn1ccnc1[N+](=O)[O-])N(CCO)CCO | inconclusive: 3.16 µM [inhibitor, full curve, poor fit] | 
38 | Cc1csc2nc(COC(=O)c3ccccc3NC(=O)COc3ccccc3F)cc(=O)n12 | inconclusive: 50.1 µM [inhibitor, partial curve, poor fit] | 
39 | O=C1NC(c2ccccc2Br)=N/C1=C\c1ccc2c(c1)OCO2 | inconclusive: 79.4 µM [inhibitor, partial curve, poor fit] | 
40 | COc1ccc(S(=O)(=O)N2CCC3(CC2)CC(CC(=O)N2CCCC2)CCO3)cc1 (centres undefined) | inconclusive: 89.1 µM [inhibitor, single point] | 
41 | COc1ccc2c(c1)c(CC(=O)OCC(=O)N(C)C)c(C)n2C(=O)c1ccc(Cl)cc1 |  | inactive: -22.4%
42 | Cc1ccc(Cl)cc1NC(=O)Cn1c(=O)n(CCCS(=O)(=O)C2CCCCC2)c(=O)c2ccccc21 | inconclusive: 112 µM [inhibitor, single point] | 
43 | O=C(Nc1ccc(N2CCOCC2)c(S(=O)(=O)Nc2cc(Cl)ccc2Cl)c1)c1cccnc1 |  | inactive: -16.9%
44 | N#CCOc1nc(-c2ccco2)c2c(c1C#N)CCC2 | inconclusive: 44.7 µM [inhibitor, partial curve, poor fit] | 

A section from further up, for reference:
Row | Structure (SMILES) | Potency | activity change, negative = inhibition
31 | COC(=O)c1c(OCc2ccccc2)cc(=O)n2c1CCN(Cc1cccc(C)n1)CC2 | inconclusive: 79.4 µM [inhibitor, single point] | 
32 | NS(=O)(=O)c1ccc(CNS(=O)(=O)c2cccc3nonc23)cc1 | inconclusive: 141 µM [inhibitor, single point] | 
33 | Cc1ccc(-c2cn3nc(C)c(C)nc3n2)cc1 | inconclusive: 63.1 µM [inhibitor, partial curve, poor fit] | 
34 | COc1ccc(C(=O)NC(NC(C)C)C(Cl)(Cl)Cl)cc1 (centres undefined) |  | inactive: 18%

The results go on:

Row | Structure (SMILES) | Potency | activity change, negative = inhibition
45 | NC(=O)c1cccc(CN2CCC3(CC2)Cc2ccccc2N(C(=O)C2CCCC2)C3)c1 | inconclusive: 22.4 µM [inhibitor, partial curve, poor fit] | 
46 | O=c1c2cn[nH]c2nc(SCc2cccc(Br)c2)n1-c1ccc(Cl)cc1 | inconclusive: 100 µM [inhibitor, partial curve, poor fit] | 
47 | COc1cccc(C2CC(=O)NC(SC)=C2C#N)c1 (centres undefined) | inconclusive: 89.1 µM [inhibitor, single point] | 
48 | Cc1ccn2c(Nc3ccc4c(c3)OCO4)c(-c3ccc(N(C)C)cc3)nc2c1 | inconclusive: 112 µM [inhibitor, partial curve, poor fit] | 
49 | O=C(O)c1ccc(COc2ccccc2/C=C2\NC(=O)N(Cc3ccccc3)C2=O)cc1 | inconclusive: 50.1 µM [inhibitor, single point] | 
50 | COc1cccc(CNC(=O)C=C(C)C)c1 | inconclusive: 1.26 µM [inhibitor, partial curve, poor fit] | 
51 | Cc1cc(C(=O)OCC(=O)Nc2cccc(S(=O)(=O)N(C)C)c2)c2ccccc2n1 | inconclusive: 0.316 µM [inhibitor, full curve, poor fit] | 
52 | CCCN(CC(N)=O)Cc1ccc(C#N)cc1 |  | inactive: 11%
53 | COc1cccc(NC(=O)c2nn(CC(C)C)c(=O)c3ccccc23)c1 | inconclusive: 100 µM [inhibitor, single point] | 
54 | Nc1nc2sc3c(c2c(=O)s1)CCCC3 | inconclusive: 79.4 µM [inhibitor, partial curve, poor fit] | 
55 | CCc1ccc2oc(C(=O)Nc3nnc(C(C)C)s3)cc(=O)c2c1 |  | inactive: -0.586%
56 | COc1ccc(CNC(=O)c2nc(SC(C)C)ncc2Cl)cc1 | inconclusive: 89.1 µM [inhibitor, partial curve, poor fit] | 
57 | O=C(CSc1nnc(-c2ccccc2)n1-c1ccc(Cl)cc1)Nc1ccc2cn[nH]c2c1 | inconclusive: 100 µM [inhibitor, single point] | 
58 | COc1ccccc1/C=C/C1=NC(=C\C=C/c2ccccc2)/C(=O)O1 | active: 44.7 µM | 
59 | CNc1nc(-c2ccc(NS(C)(=O)=O)cc2)cs1 | inconclusive: 44.7 µM [inhibitor, partial curve, poor fit] | 
60 | N/C(=N\N=C\c1cccc([N+](=O)[O-])c1)c1nonc1N | inconclusive: 141 µM [inhibitor, single point] | 
61 | CO[C@@H]1CO[C@H]2[C@@H]1OC[C@@H]2NC(=O)Nc1cccc(C(F)(F)F)c1 |  | inactive: 28.2% [at 176 µM]
62 | CCOc1cc(C2C3=C(CC(C)(C)CC3=O)OC3=C2C(=O)CC(C)(C)C3)cc([N+](=O)[O-])c1O |  | inactive: -8.06%
63 | C[C@H](CO)N1C[C@H](C)[C@@H](CN(C)S(=O)(=O)c2cccs2)Oc2ccc(NC(=O)Nc3ccc(C(F)(F)F)cc3)cc2C1=O | inconclusive: 44.7 µM [inhibitor, partial curve] | 
64 | COc1ccc(-c2cc(-c3ccc(F)cc3OC)cn3cncc23)cc1 | inconclusive: 8.91 µM [inhibitor, partial curve, poor fit] | 
